Data on two sequences can be found in publication PMC4529171.

Amino acid sequences for entries named in this document (tags omitted). A change or cut given only in a name is not applied to a line headed by its entry.
UniProt P13010: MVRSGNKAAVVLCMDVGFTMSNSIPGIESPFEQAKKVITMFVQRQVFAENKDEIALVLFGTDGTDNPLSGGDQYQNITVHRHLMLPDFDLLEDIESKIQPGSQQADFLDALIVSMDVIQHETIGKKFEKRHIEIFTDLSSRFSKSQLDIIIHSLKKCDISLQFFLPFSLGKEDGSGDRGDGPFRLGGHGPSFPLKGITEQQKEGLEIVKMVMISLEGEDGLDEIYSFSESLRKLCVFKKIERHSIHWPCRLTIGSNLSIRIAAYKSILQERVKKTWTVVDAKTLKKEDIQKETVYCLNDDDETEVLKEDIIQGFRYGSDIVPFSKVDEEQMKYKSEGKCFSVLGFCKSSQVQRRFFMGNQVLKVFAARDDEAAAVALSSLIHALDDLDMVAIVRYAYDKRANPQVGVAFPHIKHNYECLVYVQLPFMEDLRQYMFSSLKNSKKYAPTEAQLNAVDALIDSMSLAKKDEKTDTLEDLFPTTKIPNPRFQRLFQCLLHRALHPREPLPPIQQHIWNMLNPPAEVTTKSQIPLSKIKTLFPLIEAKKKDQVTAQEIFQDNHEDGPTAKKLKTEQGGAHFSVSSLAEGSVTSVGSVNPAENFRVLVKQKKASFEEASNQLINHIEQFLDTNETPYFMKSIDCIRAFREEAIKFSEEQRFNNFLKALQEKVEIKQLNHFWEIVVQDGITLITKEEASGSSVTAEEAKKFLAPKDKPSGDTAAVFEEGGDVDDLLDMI
UniProt P12956: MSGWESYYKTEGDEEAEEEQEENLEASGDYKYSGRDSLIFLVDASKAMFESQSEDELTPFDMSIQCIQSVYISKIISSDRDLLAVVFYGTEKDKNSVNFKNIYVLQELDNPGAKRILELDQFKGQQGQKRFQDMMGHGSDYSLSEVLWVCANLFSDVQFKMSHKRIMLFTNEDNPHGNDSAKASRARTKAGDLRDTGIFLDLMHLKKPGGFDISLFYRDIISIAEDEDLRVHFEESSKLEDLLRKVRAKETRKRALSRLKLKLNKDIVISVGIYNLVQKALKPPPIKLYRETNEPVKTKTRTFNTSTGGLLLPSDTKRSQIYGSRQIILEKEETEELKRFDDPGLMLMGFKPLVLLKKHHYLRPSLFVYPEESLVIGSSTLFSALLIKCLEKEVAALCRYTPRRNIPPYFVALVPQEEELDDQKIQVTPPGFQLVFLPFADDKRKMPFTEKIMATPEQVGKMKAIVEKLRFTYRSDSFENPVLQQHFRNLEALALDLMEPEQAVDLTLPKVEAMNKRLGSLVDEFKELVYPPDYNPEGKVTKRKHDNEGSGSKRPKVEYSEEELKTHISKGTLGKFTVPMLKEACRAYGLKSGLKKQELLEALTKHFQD

For at least one entry, the source does not settle the construct or the ends of the probe. At least one result comes from cells or an extract, where the contact may be indirect.

Series [1] concerns the target Ku80 (endogenous, U87MG or 1321N1 lysate) (UniProt P13010). Put plainly: pull-down (streptavidin aptoprecipitation, LC-MS/MS, Western blot). The conditions noted are these: U87MG and 1321N1 lysate, 100 nM aptamer; Pull-down: lysate in PBS with 0.1% Triton X-100, 2.5 mg/ml protein, 100 nM biotin aptamer, 45 min at 4 C, beads washed in 0.1 M PBS pH 7.4. Kd values; protein in an extract; label: 5' biotin; folded or branched DNA.

Series [2] deals with Ku70 (endogenous, U87MG or 1321N1 lysate) (UniProt P12956). The series is described as above. The conditions noted are these: U87MG and 1321N1 lysate, 100 nM aptamer; Pull-down: lysate in PBS with 0.1% Triton X-100, 2.5 mg/ml protein, 100 nM biotin aptamer, 45 min at 4 C, beads washed in 0.1 M PBS pH 7.4. Kd values; protein in an extract; label: 5' biotin; folded or branched DNA.

As to “ACGTTACTCTTGCAACACAAACTTTAATAGCCTCTTATAGTTC [SA43 DNA]”, the binding result in series [1] and in series [2] was “binds” in each case.

“ACGTTACTCTTGCAACACCCAAACTTTAATAGCCTCTTATAGTTC [SA44 DNA]”: the binding result in series [1] and in series [2] was “binds” each time.
